Measured values taken from patent US20030207393A1, “Cbp86, a sperm specific protein” (priority 2002, published 2003).
No constants are given. Whether binding was seen depends on the method and setting. Some results given as binding are weak or reduced against the parent protein; the word gives no strength. Sequences can lack the tags named with a protein.

Molecular target: recombinant CBP86 (CR-A of CBP86 with C-terminal six-histidine tag, expressed in E. coli) (human) (UniProt O75952)
Assay: immunoblot of purified recombinant protein

binding: binds
B1: recombinant CBP86 (CR-A of CBP86 with C-terminal six-histidine tag, expressed in E. coli) (protein, not shown: small tags and cut ends)
chain: MISSKPRLVVPYGLKTLLEGISRAVLKTNPSNINQFAAAYFQELTMYRGNTTMDIKDLVKQFHQIKVEKWSEGTTPQKKLECLKEPGKTSVESKVPTQMEKSTDTDEDNVTRTEYSDKTTQFPSVYAVPGTEQTEAVGGLSSKPATPKTTTPPSSPPPTAVSPEFAYVPADPAQLAAQMLGKVSSIHSDQSDVLMVDVATSMPVVIKEVPSSEAAEDVMVAAPLVCSGKVLEVQVVNQTSVHVDLGSQPKENEAEPSTASSVPLQDEQEPPAYDQAPEVTLQADIEVMSTVHISSVYNDVPVTEGVVYIEQLPEQIVIPFTDQVACLKENEQSKENEQSPRVSPKSVVEKTTSGMSKKSVESVKLAQLEENAKYSSVYMEAEATALLSDTSLKGQPEVPAQLLDAEGAIKIGSEKSLHLEVEVTSIVSDNTGQEESGENSVPQEMEGRPVLSGEAAEAVHSGTSVKSSSGPFPPAPEGLTAPEIEPEGESTAE
